This note sets out measurements from paper PMC8396726.

By UniProt entry, the sequences of proteins in these tests, tags left out.
UniProt Q8IJW2: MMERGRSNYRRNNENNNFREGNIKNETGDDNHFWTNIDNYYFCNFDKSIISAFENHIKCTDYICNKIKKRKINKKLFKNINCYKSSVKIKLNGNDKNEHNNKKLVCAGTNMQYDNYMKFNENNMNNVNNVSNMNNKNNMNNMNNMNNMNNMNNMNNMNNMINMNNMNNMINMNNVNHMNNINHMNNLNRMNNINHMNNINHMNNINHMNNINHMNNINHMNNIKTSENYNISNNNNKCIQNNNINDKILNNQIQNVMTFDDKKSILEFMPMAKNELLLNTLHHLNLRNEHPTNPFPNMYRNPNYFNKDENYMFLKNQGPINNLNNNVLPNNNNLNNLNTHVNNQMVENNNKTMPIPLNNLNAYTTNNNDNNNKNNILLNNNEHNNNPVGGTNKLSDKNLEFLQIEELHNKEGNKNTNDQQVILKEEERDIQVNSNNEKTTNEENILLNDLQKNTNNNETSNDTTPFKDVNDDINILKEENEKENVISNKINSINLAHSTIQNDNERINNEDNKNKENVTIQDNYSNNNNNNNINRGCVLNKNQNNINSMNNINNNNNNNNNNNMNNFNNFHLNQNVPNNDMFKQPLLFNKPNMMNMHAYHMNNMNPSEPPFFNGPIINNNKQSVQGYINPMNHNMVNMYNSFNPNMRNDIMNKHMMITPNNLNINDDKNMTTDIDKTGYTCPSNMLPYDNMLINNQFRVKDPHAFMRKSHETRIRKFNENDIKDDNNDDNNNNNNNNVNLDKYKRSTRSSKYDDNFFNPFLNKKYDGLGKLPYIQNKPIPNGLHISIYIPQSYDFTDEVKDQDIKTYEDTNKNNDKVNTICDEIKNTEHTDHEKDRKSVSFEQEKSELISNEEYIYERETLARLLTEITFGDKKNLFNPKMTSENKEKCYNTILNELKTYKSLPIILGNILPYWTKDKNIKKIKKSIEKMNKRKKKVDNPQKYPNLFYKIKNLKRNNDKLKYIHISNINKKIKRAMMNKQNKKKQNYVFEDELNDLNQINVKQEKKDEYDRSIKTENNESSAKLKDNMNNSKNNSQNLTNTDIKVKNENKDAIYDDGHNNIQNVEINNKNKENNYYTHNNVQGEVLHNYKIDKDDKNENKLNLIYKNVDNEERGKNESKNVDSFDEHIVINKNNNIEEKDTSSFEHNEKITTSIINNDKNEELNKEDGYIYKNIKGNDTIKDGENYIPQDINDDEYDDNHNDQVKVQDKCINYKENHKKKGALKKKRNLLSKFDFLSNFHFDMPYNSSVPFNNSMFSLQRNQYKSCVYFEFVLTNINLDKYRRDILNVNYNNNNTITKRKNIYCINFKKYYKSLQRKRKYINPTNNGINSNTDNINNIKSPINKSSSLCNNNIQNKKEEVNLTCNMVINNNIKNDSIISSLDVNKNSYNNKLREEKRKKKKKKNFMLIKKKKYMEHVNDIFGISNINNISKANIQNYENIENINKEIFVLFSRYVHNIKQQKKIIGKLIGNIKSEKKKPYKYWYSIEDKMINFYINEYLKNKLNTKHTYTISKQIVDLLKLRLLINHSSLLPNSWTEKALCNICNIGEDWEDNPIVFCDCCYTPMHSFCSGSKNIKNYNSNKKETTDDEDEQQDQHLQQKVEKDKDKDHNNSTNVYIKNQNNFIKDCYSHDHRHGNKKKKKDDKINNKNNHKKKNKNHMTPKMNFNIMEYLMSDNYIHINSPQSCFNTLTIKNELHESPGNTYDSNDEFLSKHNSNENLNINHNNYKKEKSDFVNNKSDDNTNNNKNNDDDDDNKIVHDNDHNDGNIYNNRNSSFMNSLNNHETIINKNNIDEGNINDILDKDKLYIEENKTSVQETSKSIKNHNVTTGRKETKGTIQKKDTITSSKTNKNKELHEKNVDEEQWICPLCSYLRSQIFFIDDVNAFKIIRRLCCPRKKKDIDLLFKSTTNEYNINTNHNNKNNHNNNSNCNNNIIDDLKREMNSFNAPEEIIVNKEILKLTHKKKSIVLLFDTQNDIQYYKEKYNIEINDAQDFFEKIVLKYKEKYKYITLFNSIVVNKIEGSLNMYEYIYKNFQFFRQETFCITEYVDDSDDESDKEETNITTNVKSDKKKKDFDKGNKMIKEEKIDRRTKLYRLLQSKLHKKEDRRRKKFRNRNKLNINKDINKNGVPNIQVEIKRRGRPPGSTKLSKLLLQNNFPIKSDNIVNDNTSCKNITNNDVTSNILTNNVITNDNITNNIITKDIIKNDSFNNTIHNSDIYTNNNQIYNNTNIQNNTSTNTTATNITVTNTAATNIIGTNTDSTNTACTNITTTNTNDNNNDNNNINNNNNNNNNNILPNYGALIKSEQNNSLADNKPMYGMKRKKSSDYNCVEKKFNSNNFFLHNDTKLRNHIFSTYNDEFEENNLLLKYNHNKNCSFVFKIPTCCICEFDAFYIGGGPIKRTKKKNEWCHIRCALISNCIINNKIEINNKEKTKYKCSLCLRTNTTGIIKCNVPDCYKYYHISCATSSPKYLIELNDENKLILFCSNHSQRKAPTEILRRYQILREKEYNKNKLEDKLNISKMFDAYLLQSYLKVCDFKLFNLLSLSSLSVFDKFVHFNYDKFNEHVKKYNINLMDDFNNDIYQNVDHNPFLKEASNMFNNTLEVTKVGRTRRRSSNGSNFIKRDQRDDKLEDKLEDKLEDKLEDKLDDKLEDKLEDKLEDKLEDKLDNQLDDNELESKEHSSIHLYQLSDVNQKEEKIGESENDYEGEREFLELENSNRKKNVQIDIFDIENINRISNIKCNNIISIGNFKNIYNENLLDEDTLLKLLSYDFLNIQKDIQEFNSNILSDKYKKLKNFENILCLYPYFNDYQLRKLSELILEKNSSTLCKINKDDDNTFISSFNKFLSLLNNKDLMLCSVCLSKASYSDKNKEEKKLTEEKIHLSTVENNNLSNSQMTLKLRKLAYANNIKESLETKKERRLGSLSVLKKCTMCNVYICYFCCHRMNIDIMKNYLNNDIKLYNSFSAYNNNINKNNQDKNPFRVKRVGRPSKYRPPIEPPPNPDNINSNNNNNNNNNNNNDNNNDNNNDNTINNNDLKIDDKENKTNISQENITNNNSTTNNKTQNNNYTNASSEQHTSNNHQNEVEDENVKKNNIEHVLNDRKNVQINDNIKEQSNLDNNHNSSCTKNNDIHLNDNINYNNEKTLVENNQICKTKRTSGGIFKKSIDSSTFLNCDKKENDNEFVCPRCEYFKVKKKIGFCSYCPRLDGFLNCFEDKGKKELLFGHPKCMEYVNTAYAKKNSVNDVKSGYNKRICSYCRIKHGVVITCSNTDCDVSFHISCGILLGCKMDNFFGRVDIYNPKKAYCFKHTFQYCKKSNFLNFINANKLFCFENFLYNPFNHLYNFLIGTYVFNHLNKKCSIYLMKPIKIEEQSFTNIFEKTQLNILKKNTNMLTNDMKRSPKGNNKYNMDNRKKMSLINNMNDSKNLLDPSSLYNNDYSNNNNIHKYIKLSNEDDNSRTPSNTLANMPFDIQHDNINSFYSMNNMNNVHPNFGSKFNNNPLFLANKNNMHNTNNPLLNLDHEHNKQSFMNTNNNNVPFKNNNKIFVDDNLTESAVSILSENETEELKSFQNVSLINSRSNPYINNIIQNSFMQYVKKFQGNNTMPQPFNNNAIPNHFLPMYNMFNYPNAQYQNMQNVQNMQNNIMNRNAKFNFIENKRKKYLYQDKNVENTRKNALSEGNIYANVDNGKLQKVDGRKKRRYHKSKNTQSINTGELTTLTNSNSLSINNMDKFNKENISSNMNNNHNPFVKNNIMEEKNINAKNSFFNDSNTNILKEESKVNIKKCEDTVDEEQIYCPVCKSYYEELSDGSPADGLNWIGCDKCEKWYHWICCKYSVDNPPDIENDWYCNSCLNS
UniProt Q8IB67: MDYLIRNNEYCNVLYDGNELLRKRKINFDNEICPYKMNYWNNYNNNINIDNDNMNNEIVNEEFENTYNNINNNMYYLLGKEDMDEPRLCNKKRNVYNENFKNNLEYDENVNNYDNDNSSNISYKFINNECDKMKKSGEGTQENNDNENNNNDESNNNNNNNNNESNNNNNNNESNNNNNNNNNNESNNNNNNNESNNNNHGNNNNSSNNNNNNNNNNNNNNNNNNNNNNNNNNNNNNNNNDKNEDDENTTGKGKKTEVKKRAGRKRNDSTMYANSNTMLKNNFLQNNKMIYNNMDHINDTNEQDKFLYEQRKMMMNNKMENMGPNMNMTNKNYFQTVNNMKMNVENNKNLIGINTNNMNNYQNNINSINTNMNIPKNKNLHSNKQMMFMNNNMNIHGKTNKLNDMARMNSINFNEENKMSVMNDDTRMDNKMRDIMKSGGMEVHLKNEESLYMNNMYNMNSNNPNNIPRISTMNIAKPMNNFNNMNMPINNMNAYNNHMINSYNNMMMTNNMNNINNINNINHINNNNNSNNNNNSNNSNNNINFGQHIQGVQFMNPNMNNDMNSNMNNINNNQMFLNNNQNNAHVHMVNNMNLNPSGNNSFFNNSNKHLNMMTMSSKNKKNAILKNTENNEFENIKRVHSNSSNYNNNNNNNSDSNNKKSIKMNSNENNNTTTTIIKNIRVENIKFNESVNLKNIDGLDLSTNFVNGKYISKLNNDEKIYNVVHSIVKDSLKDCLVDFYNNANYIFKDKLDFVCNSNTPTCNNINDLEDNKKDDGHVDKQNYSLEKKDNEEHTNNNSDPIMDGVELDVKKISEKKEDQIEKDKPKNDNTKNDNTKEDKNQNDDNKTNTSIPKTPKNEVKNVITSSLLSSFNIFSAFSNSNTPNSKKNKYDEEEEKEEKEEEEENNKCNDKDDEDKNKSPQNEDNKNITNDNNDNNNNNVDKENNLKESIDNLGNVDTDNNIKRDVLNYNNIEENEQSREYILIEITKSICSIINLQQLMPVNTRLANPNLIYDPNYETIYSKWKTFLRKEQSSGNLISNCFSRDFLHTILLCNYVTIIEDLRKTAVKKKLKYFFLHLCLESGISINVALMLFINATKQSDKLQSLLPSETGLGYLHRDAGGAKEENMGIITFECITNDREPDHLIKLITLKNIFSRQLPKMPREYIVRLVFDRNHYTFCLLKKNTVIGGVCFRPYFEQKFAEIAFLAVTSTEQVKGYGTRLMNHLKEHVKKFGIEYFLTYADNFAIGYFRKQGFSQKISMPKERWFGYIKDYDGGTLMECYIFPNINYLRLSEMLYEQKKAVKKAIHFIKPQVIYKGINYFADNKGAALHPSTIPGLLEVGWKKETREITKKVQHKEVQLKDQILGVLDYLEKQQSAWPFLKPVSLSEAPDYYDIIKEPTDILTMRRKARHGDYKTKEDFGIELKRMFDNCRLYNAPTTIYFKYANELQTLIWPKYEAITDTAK

Assay [1] deals with PfPHD1 (P. falciparum (endogenous in 3D7 parasites)) (UniProt Q8IJW2). As to the kind of experiment: co-IP; nuclear extracts of trophozoites of the PfGCN5::PTP line; IP with anti-PfPHD1 or anti-PfPHD2 antibodies (agarose conjugated); blot with anti-protein C antibodies; pre-immune sera as control.
Assay [2] concerns the target PfPHD2 (P. falciparum (endogenous in 3D7 parasites)) (UniProt Q8ILC9). Described as above.
The target is the same in assay [3]. Put plainly: co-IP; lysates of 3D7 wild-type parasites; agarose conjugated with anti-PfPHD1 or anti-PfPHD2 antibodies; blot with anti-PfPHD2 or anti-PfPHD1 antibodies.
In assay [4] the target is PfGCN5::PTP (P. falciparum 3D7) (UniProt Q8IB67). Put plainly: SEC; native complex from nuclear extract of PfGCN5::PTP parasites (IgG beads, TEV protease elution) on a Superose 6 column; fractions blotted with anti-PTP, anti-PfPHD1 and anti-PfPHD2 antibodies and tested for HAT activity.
Assay [5] deals with PfPHD1 (P. falciparum (endogenous in 3D7 parasites)) (UniProt Q8IJW2). As to the kind of experiment: co-IP; lysates of 3D7 wild-type parasites; agarose conjugated with anti-PfPHD1 or anti-PfPHD2 antibodies; blot with anti-PfPHD2 or anti-PfPHD1 antibodies.
Assay [6] shares this target. As to the kind of experiment: SEC; native complex from nuclear extract of PfGCN5::PTP parasites (IgG beads, TEV protease elution) on a Superose 6 column; fractions blotted with anti-PTP, anti-PfPHD1 and anti-PfPHD2 antibodies and tested for HAT activity. In general terms: In gel filtration, larger molecules generally elute earlier.

These are yes or no findings as the source states them, for the method shown. For some of these results: In cells and extracts the contact can be indirect. Some results given as binding are weak or reduced against the parent protein; the word gives no strength.

Take “PfGCN5::PTP (from UniProt Q8IB67 1-1465) (enzyme)”: the binding entry in assay [1] and in assay [2] was “binds” in each case.

With PfPHD1 (from UniProt Q8IJW2 1-3853), the binding result in assay [3] and in assay [4] was “binds” throughout.

Take PfPHD2 (from UniProt Q8ILC9 1-5757): the binding entry in assay [5], in assay [4] and in assay [6] was “binds” throughout.
